In PMC11026443 one finds binding data, which are given here for 4 molecules.

Sequences of proteins named here, by UniProt entry; tags and fusion partners are left off.
UniProt Q5U3H2: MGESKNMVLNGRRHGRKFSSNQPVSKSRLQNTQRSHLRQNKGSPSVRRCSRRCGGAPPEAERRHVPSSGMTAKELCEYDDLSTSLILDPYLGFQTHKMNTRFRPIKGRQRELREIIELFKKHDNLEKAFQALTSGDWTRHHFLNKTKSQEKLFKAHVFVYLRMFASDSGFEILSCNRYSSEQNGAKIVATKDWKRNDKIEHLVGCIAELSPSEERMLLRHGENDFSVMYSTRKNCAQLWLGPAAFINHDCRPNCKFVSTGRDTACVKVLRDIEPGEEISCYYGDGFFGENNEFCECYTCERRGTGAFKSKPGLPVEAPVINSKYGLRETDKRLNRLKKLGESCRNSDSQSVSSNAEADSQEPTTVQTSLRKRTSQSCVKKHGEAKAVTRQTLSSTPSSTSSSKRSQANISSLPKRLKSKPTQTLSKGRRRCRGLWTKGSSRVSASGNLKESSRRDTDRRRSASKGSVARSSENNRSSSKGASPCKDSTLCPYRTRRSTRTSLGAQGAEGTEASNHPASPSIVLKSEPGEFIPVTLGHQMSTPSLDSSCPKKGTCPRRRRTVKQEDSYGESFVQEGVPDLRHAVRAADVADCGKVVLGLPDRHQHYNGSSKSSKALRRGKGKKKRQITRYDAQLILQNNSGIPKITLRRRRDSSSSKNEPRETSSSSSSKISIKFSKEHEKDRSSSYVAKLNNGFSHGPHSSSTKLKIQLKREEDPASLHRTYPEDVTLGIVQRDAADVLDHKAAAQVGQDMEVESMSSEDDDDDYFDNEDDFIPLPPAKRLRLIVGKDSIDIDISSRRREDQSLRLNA

Positions count from the first letter of the chain named. Names may count otherwise. These are yes or no findings as the source states them, for the method shown. In cells and extracts the contact can be indirect. Some entries that bind do so weakly or less than the wild type.

The target in experiment [1] is T1, mCherry-hRB1 (human) (UniProt P06400).
T1 sequence: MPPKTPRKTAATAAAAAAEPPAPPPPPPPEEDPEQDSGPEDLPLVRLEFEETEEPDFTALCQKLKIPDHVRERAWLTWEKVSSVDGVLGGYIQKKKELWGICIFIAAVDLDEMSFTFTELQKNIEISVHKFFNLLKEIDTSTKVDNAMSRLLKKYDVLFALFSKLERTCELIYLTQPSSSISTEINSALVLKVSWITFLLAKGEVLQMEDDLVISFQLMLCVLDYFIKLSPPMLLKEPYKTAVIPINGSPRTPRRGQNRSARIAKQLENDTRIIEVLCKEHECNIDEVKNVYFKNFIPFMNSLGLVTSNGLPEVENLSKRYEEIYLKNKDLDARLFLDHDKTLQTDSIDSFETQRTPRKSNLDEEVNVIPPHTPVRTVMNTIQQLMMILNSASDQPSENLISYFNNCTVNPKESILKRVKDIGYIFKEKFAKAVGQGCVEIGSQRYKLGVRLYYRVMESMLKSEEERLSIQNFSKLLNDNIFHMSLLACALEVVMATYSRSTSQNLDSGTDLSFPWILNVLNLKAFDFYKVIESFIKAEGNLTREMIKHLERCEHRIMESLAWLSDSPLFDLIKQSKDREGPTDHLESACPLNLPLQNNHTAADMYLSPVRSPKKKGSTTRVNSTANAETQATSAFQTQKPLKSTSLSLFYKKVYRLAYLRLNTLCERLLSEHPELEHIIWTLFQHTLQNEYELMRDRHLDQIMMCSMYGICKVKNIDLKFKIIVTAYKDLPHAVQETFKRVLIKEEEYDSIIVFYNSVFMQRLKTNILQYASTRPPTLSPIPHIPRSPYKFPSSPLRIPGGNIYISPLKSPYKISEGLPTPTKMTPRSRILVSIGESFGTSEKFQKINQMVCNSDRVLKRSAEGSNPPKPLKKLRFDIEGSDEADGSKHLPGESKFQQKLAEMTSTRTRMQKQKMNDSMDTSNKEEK
In words: co-IP; lysate of 293T cells transfected for 48 h with GFP-Kmt5b and mCherry-hRB1, mCherry-hRB1^R621S or mCherry-hRB1^L819V; IP with anti-GFP overnight at 4 °C and protein G Dynabeads, reciprocal IP with anti-mCherry; control IgG; western blot. Background: A western blot detects proteins with antibodies after separation by electrophoresis.

For experiment [2], the target named is GFP-Kmt5b (expressed in 293T cells) (zebrafish) (UniProt Q5U3H2). The experiment is described as above.

In the case of “GFP-Kmt5b (expressed in 293T cells) (from UniProt Q5U3H2 1-808)”, the binding entry in experiment [1] is listed as “binds”.

B1: mCherry-hRB1 (protein, UniProt P06400 1-928)
chain: T1 sequence
On to B1, for which the binding result in experiment [2] is given as “binds”.

B2: mCherry-hRB1^L819V (protein, UniProt P06400 1-928)
chain: T1 sequence with L819V
Consider B2, for which the binding entry in experiment [2] is reported as “no binding”.

B3: mCherry-hRB1^R621S (protein, UniProt P06400 1-928)
chain: T1 sequence with R621S
B3: in experiment [2], the binding result is listed as “no binding”.
